According to PubChem BioAssay AID651768 (National Center for Advancing Translational Sciences (NCATS), 2012):
The campaign covered roughly 360,000 compounds. About 1,700 (0.47%) were called active. The shares of active, inactive and inconclusive entries below differ from those in the screen. Calls follow the shape of the dose curve; as a rule, active = well fitted inhibition curve with a large enough effect; inconclusive = small, poorly fitted or top-dose-only effect; inactive = no such curve, though single readings can be large or run the other way. Potencies of inconclusive entries are doubtful fits and often do not repeat.

Protein sequences, listed by entry. Tags and fused reporters are not part of them.
UniProt Q14191, whole entry, looked up: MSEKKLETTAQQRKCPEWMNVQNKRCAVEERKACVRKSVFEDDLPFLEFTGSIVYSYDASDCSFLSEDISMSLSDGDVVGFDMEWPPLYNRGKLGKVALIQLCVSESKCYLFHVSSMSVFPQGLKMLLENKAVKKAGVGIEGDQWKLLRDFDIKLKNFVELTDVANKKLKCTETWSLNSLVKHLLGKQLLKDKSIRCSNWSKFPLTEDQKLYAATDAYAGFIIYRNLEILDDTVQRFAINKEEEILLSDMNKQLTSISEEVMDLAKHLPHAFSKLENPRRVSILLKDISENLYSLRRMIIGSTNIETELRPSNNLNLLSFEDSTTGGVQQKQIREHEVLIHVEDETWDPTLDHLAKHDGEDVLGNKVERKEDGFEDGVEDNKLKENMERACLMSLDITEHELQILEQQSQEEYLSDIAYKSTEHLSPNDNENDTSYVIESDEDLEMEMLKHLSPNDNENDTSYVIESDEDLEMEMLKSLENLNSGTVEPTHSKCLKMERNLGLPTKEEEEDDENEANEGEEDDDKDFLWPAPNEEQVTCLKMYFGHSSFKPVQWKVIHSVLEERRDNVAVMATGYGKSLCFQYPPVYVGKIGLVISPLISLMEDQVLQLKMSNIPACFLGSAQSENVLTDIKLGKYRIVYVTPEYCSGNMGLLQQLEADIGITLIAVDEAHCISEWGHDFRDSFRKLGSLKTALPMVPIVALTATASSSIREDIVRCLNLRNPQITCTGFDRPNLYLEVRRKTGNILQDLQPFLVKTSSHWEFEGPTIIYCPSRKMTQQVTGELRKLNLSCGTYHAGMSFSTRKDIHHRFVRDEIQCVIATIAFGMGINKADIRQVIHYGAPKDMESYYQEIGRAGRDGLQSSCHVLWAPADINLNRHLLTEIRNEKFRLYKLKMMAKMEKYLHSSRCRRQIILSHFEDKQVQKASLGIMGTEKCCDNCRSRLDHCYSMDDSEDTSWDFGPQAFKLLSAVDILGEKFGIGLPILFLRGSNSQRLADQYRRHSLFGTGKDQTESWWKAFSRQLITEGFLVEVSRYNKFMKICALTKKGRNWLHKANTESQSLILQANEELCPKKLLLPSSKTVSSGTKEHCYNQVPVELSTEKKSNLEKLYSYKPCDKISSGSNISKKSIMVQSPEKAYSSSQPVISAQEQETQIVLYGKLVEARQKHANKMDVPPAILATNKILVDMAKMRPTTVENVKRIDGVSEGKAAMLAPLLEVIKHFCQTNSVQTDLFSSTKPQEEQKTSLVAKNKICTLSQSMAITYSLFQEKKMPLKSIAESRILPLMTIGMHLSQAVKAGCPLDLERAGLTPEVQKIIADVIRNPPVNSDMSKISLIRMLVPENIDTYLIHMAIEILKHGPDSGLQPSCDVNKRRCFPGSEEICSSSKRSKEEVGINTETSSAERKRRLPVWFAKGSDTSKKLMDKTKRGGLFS

What follows are molecules tested against Bifunctional 3'-5' exonuclease/ATP-dependent helicase WRN (Homo sapiens) (UniProt Q14191) (assay: qHTS for Inhibitors of WRN Helicase). Settings: WRN helicase unwinding, fluorescent forked duplex, kinetic; activity change, negative = inhibition: at 114 µM (top of the series) unless noted.
Outline: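 Primary qHTS, 1536-well format. 20 nM WRN + compound, 15 min RT; start with 100 nM forked fluorophore/quencher duplex, 2 mM ATP (final); kinetic read ex 525/em 598 nm.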
% is scaled to controls: 0 for no effect and ±100 for the full control effect; potency is read from the fitted curve at half-maximal effect.
Also: nearly all actives have a fitted effect of over 55% in size.

Row | Compound | Potency | activity change, negative = inhibition
1 | Cc1cc(=O)cc(C)n1-c1ccc2c(c1)nc(C)n2-c1ccccc1 | inactive | –
2 | CN(C)c1ccc(CNS(=O)(=O)c2csc(C(N)=O)c2)cc1 | inactive | –
3 | COc1cccc(NC(=O)c2ccccc2N2C(=O)C3C4C=CC(C4)C3C2=O)c1 (configuration not stated) | inconclusive: 89.1 µM [inhibitor, single point] | –
4 | Cc1cnn(C(=O)c2cc(-c3ccccn3)nc3ccc(Cl)cc23)c1 | inconclusive: 70.8 µM [inhibitor, single point] | –
5 | Nc1ccc(N2CCN(C(=O)c3ccco3)CC2)cc1 | inconclusive: 44.7 µM [inhibitor, partial curve] | –
6 | CCn1c(SCC(=O)OC)nc2sc3c(c2c1=O)CCC3 | inconclusive: 26.7 µM [inhibitor, partial curve] | –
7 | O=C(c1cc(O)c(O)c([N+](=O)[O-])c1)c1ccccc1F | inconclusive: 15.8 µM [inhibitor, full curve] | –
8 | COc1ccc(-c2ccc(/C=C3/C(=N)N4C=CSC4=NC3=O)o2)c([N+](=O)[O-])c1 | inconclusive: 56.2 µM [inhibitor, partial curve] | –
9 | CCOc1ccccc1N1CCN(S(=O)(=O)c2ccc3c4c(cccc24)C(=O)N3)CC1 | inconclusive: 50.1 µM [inhibitor, partial curve] | –
10 | COc1cc(/C=C2/C(=O)N(c3ccc([N+](=O)[O-])cc3)N=C2N2CCOCC2)ccc1O | inactive | –
11 | Cc1ccccc1NC(=O)NCCCN1CCCC1=O | inactive | –
12 | N#Cc1c(NC(=O)CSc2ncccn2)oc(-c2ccccc2)c1-c1ccccc1 | inconclusive: 79.4 µM [inhibitor, partial curve] | –
13 | O=C(O)CSc1nc2ccc(Cl)cc2[nH]1 | – | inconclusive: -40.5% [inhibitor] [at 57.1 µM]
14 | CCN(C(=O)C(C)N1C(=O)/C(=C/c2ccco2)SC1=S)C1CCS(=O)(=O)C1 (configuration not stated) | active: 50.1 µM | –
15 | Cc1nnc(NC(=O)CSc2nnc(CNC(=O)c3ccc(F)cc3)o2)s1 | inconclusive: 44.7 µM [inhibitor, partial curve] | –
16 | S=P(c1ccc(N2CCOCC2)cc1N1CCOCC1)(N1CCOCC1)N1CCOCC1 | inactive | –
17 | Cc1ccc(S(=O)(=O)N2CCCCC2)cc1C(=O)Nc1ccc(S(=O)(=O)Nc2ncccn2)cc1 | inconclusive: 56.2 µM [inhibitor, partial curve] | –
18 | Cc1cc(NC(=O)CSc2nc3c(c(=O)n2C)SCC3)no1 | inconclusive: 31.6 µM [inhibitor, full curve] | –
19 | Cc1c(CCC(=O)NCCCCCC(=O)O)c(=O)oc2cc3occ(-c4ccccc4)c3cc12 | inconclusive: 56.2 µM [inhibitor, partial curve] | –
20 | Cc1nc2c(ccc3nc(NC(=O)c4ccc5c(c4)OCCO5)sc32)s1 | inconclusive: 6.31 µM [inhibitor, partial curve, poor fit] | –
21 | CC(C)CC(=O)Nc1ccc(-c2nc3ccccc3c(=O)o2)cc1 | inconclusive: 10 µM [inhibitor, partial curve] | –
22 | CCOC(=O)c1sc(NC(=O)CSc2nnc(Cc3ccccc3)o2)c(C#N)c1C | inconclusive: 79.4 µM [inhibitor, partial curve] | –
23 | CCS(=O)(=O)N1CCN(Cc2ccc([N+](=O)[O-])cc2)CC1 | inconclusive: 39.8 µM [inhibitor, partial curve] | –

Row | Compound | Potency | activity change, negative = inhibition
24 | CC1CCCCC1NC(=O)CSc1ccsc1[N+](=O)[O-] (configuration not stated) | inactive | –
25 | CC1CN(c2ccc(Cl)cc2[N+](=O)[O-])CCN1S(C)(=O)=O (configuration not stated) | inactive | –
26 | N#C/C(=N\Nc1ccc(S(=O)(=O)N2CCc3ccccc32)cc1)C(N)=S | inconclusive: 39.8 µM [inhibitor, single point] | –
27 | CCc1nn2c(=O)cc(COc3ccc(/C=C4\C(=N)N5N=C(C)SC5=NC4=O)cc3)nc2s1 | inconclusive: 50.1 µM [inhibitor, partial curve] | –
28 | CC(=O)Nc1cccc(C(=O)/C=C/c2ccc(N(C)C)cc2)c1 | inconclusive: 79.4 µM [inhibitor, partial curve] | –
29 | O=C(Nc1cccc(NC(=O)c2ccc(Br)o2)n1)c1ccc(Br)o1 | inconclusive: 56.2 µM [inhibitor, partial curve] | –
30 | CN1C(=O)NC2(O)C(=O)c3ccccc3C12O (configuration not stated) | inconclusive: 89.1 µM [inhibitor, single point] | –
31 | CCc1nnc(NS(=O)(=O)c2ccc(N3C(=O)c4ccccc4C3=O)cc2)s1 | inconclusive: 39.8 µM [inhibitor, single point] | –
32 | Cc1[nH][nH]c(=O)c1C(c1ccc(-c2ccc(Cl)c(C(=O)O)c2)o1)c1c(C)[nH][nH]c1=O | inconclusive: 35.5 µM [inhibitor, partial curve] | –
33 | Cc1ccccc1N=C1NC(=O)/C(=C/c2cccn2-c2cccc(C(=O)O)c2)S1 | inconclusive: 79.4 µM [inhibitor, partial curve] | –
34 | CCCCC(CC)CN=C(N)NC(N)=NCCCCCCN=C(N)NC(N)=NCC(CC)CCCC (configuration not stated) | active: 89.1 µM | –
35 | Cc1ccc2c(c1)C(=O)C(=O)N2Cc1ccc(C(F)(F)F)cc1 | inactive | –
36 | CCc1sc(/C=C(/C#N)C(N)=S)cc1[N+](=O)[O-] | inconclusive: 56.2 µM [inhibitor, partial curve] | –
37 | O=C(c1ccco1)N1CCN(C2CN(Cc3cn(Cc4ccccc4C(F)(F)F)nn3)S(=O)(=O)C2)CC1 (configuration not stated) | inactive | –
38 | CCc1ccc(/C=C2/SC(=S)N(CCCC(=O)Nc3ccccc3C(=O)O)C2=O)cc1 | inconclusive: 39.8 µM [inhibitor, single point] | –
39 | Cc1nc(-c2ccc(S(=O)(=O)Nc3ccc(Br)cc3Cl)s2)cs1 | inconclusive: 10 µM [inhibitor, full curve] | –
40 | CC(C)C(C(=O)O)N1C(=O)/C(=C/C=C/c2ccco2)SC1=S (configuration not stated) | active: 3.55 µM | –
41 | Cc1cc(C)n(Cc2ccc(C(=O)N/N=C/c3ccc(-c4ccc([N+](=O)[O-])cc4)o3)o2)n1 | active: 31.6 µM | –
42 | NC(=S)N=Nc1ccc(NN=C(N)N)cc1 | inconclusive: 44.7 µM [inhibitor, partial curve] | –
43 | COc1ccc(OC)c(NC(=O)C2CC(=O)N(CCc3ccc(F)cc3)C2)c1 (configuration not stated) | inconclusive: 28.2 µM [inhibitor, partial curve] | –
44 | O=[N+]([O-])c1ccc(NCc2ccc3c(c2)OCO3)cc1 | inactive | –
45 | CSCCC(NC(=O)COc1ccccc1)C(=O)N1CCCCC1 (configuration not stated) | inconclusive: 25.1 µM [inhibitor, full curve] | –
46 | O=[N+]([O-])c1ccccc1CN1CCN(S(=O)(=O)Cc2ccccc2)CC1 | inconclusive: 31.6 µM [inhibitor, full curve] | –

Single records (already shown). Values in the order: Potency	activity change, negative = inhibition
Cc1nc(-c2ccc(S(=O)(=O)Nc3ccc(Br)cc3Cl)s2)cs1 is listed as inconclusive: 10 µM [inhibitor, full curve]	–
CC1CN(c2ccc(Cl)cc2[N+](=O)[O-])CCN1S(C)(=O)=O (configuration not stated) is listed as inactive	–
O=[N+]([O-])c1ccccc1CN1CCN(S(=O)(=O)Cc2ccccc2)CC1 is listed as inconclusive: 31.6 µM [inhibitor, full curve]	–

(more compounds)

Row | Compound | Potency | activity change, negative = inhibition
47 | COc1ccc(NC(=O)COC(=O)CCCOc2ccc(Cl)cc2Cl)cc1Cl | inconclusive: 31.6 µM [inhibitor, single point] | –
48 | CCOc1ccc(-c2cc(C(=O)NC3CCCCC3)[nH]n2)c(C)c1 | inactive | –
49 | O=S(=O)(c1ccc(Oc2ccc(Br)cc2)cc1)N1CCOCC1 | inactive | –
50 | CSCCOC(=O)COc1ccc(/C=N/NC(=O)c2c(Cl)cnn2C)cc1 | inactive | –
51 | O=C(COc1ccccc1/C=C\c1nc(O)c([N+](=O)[O-])c(=O)[nH]1)Nc1ccccc1 | inconclusive: 50.1 µM [inhibitor, partial curve] | –
52 | O=C(NCc1ccco1)c1ccc(-c2ccc3nccn3c2)cc1 | inactive | –
53 | C=CCN1C(=O)/C(=C2/Sc3ccccc3N2CCCS(=O)(=O)O)SC1=S | inconclusive: 16.8 µM [inhibitor, partial curve] | –
54 | COc1cc([N+](=O)[O-])ccc1-c1ccc(/C=N/NC(=O)OC(C)(C)C)o1 | inactive | –
55 | Cc1ccc(C2/C(=C(\O)c3c(C)nc4ccccn34)C(=O)C(=O)N2CCN(C)C)o1 (configuration not stated) | inconclusive: 10 µM [inhibitor, full curve, poor fit] | –
56 | CCCc1cc(=O)oc2c(C)c(OCC(=O)NCCN3CCOCC3)ccc12 | inconclusive: 10 µM [inhibitor, partial curve] | –
57 | O=C1C=C(NCCc2cc(Br)c(O)c(Br)c2)C(=O)c2ncccc21 | active: 25.1 µM | –
58 | CCN1CCCC1CNC(=O)c1ccc2c(c1)NC(=O)/C(=C\c1ccc(OC)c(OC)c1)S2 (configuration not stated) | inconclusive: 50.1 µM [inhibitor, partial curve] | –
59 | CC(NC(=O)/C(C#N)=C/c1ccc([N+](=O)[O-])o1)c1ccccc1 (configuration not stated) | active: 56.2 µM | –
60 | COc1ccc(CNC(=O)CC2C[C@H](C(=O)N3CCCCC3)[C@@]3(C)c4[nH]c5ccccc5c4CCN3C2=O)cc1OC (some centres not stated) | inactive | –
61 | Cc1[nH]c2ccccc2c1/C=N/Nc1ccccc1[N+](=O)[O-] | inactive | –
62 | CCN(CC(=O)NC(=O)NCc1ccco1)Cc1nc2ccccc2c(=O)[nH]1 | inconclusive: 3.55 µM [inhibitor, full curve, poor fit] | –
63 | COc1ccc(/C=N/n2c(-c3cc(C)[nH]n3)n[nH]c2=S)cc1 | inconclusive: 3.55 µM [inhibitor, full curve, poor fit] | –
64 | CCc1nnc(NC(=O)Cc2cccs2)s1 | inconclusive: 50.1 µM [inhibitor, partial curve] | –
65 | N=C1/C(=C\c2ccc(OC(=O)c3ccco3)cc2)C(=O)N=C2SC=NN12 | inconclusive: 39.8 µM [inhibitor, single point] | –
66 | Cc1nc(NS(=O)(=O)c2ccccc2)sc1C(=O)NN | inconclusive: 31.6 µM [inhibitor, single point] | –
67 | NC(=O)c1sc2nc(-c3ccco3)ccc2c1N | inconclusive: 56.2 µM [inhibitor, partial curve, poor fit] | –
